Reference: PubChem BioAssay AID686938 (Drosophila RNAi Screening Center, 2013)

- Aim: 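Knock-downs reducing store-operated calcium influx in Drosophila cells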 (primary screen)
- Cell system: Drosophila S2R+ cells
- Reagents: long dsRNA against Drosophila genes, about 0.25 µg dsRNA per well, roughly 10,000 cells
- Timing: 5 days of knock-down before the calcium assay
- Treatment: thapsigargin (SERCA pump blocker) to empty calcium stores; entry signal taken 4 min after adding it
- Measured: 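Duplicate raw fluo-4 intensities per well from a plate reader, at rest and four minutes after thapsigargin emptied calcium stores; entry-to-rest ratio filled for only some wells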
- Scale: calcium entry signal: higher = stronger calcium signal after store depletion; resting calcium signal: higher = higher resting calcium signal
- Active means: 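Hit if the duplicate-averaged plate z-score for entry over resting signal is under −3; wells with weak total dye signal (Fmax z < −2) or more than 5 off-targets removed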
- Calls: active = strongly reduced calcium entry; inactive = no strong reduction
In all, the deposit lists about 23,000 reagents; below is an unselected part of those with a known target gene and a result. In the full data, 75 (0.33%) were called active. 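Raw plate signals without normalisation; calls rest on plate z-scores that were not deposited; ratio present for only 364 wells.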 The numbers tell different reagents against one gene apart. Names joined by + are all predicted targets of the reagent. The record does not give: the dose of the treatment.

target | reagent no. | calcium entry signal, replicate 1 (fluorescence units) | calcium entry signal, replicate 2 (fluorescence units) | resting calcium signal, replicate 1 (fluorescence units) | resting calcium signal, replicate 2 (fluorescence units) | Call
qkr58E-2 (quaking related 58E-2) | 1 | 1.86e7 | 2.66e7 | 1.06e7 | 1.20e7 | inactive
CCHa2 (CCHamide-2) | 1 | 2.87e7 | 5.03e7 | 1.51e7 | 2.33e7 | inactive
Den1 (Deneddylase 1) | 1 | 3.04e7 | 4.13e7 | 1.56e7 | 1.79e7 | inactive
Rab9Db + Rab9D + Rab9Fa + 1 more | 1 | 4.08e7 | 3.73e7 | 2.03e7 | 1.76e7 | inactive
pdm3 (pou domain motif 3) | 1 | 3.56e7 | 3.57e7 | 1.60e7 | 1.48e7 | inactive
pdm3 (pou domain motif 3) | 2 | 4.43e7 | 4.23e7 | 2.08e7 | 1.80e7 | inactive
pdm3 (pou domain motif 3) | 3 | 3.57e7 | 5.38e7 | 1.73e7 | 3.01e7 | inactive
pdm3 (pou domain motif 3) | 4 | 4.26e7 | 4.22e7 | 1.82e7 | 1.58e7 | inactive
lncRNA:CR42862 + CG33229 | 1 | 4.25e7 | 3.24e7 | 1.91e7 | 1.68e7 | inactive
TwdlJ (TweedleJ) | 1 | 1.94e7 | 3.45e7 | 1.11e7 | 1.59e7 | inactive
Prp40 (pre-mRNA processing factor 40) | 1 | 3.14e7 | – | 1.91e7 | – | inactive
Daao2 (D-amino acid oxidase 2) | 1 | 3.65e7 | – | 1.66e7 | – | inactive
betaNACtes2 (Nascent-associated complex beta-subunit-like, testis 2) | 1 | 2.91e7 | 3.64e7 | 1.59e7 | 1.73e7 | inactive
nullo | 1 | 3.68e7 | 4.45e7 | 1.79e7 | 2.12e7 | inactive
CG7483 | 1 | 4.12e7 | 3.41e7 | 1.95e7 | 1.68e7 | inactive
CG7483 | 2 | 2.66e7 | 1.94e7 | 1.34e7 | 8.28e6 | inactive

Individual results from above.
For “resting calcium signal, replicate 2 (fluorescence units)”, pdm3 (pou domain motif 3) #4 has 1.58e7
Entry of CG7483 #1 in “calcium entry signal, replicate 2 (fluorescence units)”: 3.41e7
CCHa2 (CCHamide-2), calcium entry signal, replicate 1 (fluorescence units): 2.87e7

Continued:
target | reagent no. | calcium entry signal, replicate 1 (fluorescence units) | calcium entry signal, replicate 2 (fluorescence units) | resting calcium signal, replicate 1 (fluorescence units) | resting calcium signal, replicate 2 (fluorescence units) | Call
mRpS16 (mitochondrial ribosomal protein S16) | 1 | 3.56e7 | 3.93e7 | 1.91e7 | 1.65e7 | inactive
CG11147 | 1 | 2.81e7 | 3.02e7 | 1.40e7 | 1.36e7 | inactive
CG18063 | 1 | 5.05e7 | 3.52e7 | 2.24e7 | 1.59e7 | inactive
Phb2 (Prohibitin 2) | 1 | 2.27e7 | 1.41e7 | 1.31e7 | 7.92e6 | inactive
CG17283 | 1 | 4.00e7 | 4.74e7 | 1.90e7 | 7.14e7 | inactive
CG34112 | 1 | 3.22e7 | 4.95e7 | 1.46e7 | 2.08e7 | inactive
Fancd2 | 1 | 4.05e7 | 5.60e7 | 5.94e7 | 2.53e7 | inactive
Fancd2 | 2 | 4.65e7 | 4.29e7 | 2.51e7 | 1.97e7 | inactive
